Data as given in PubChem BioAssay AID1259254 (NCATS, 2017)

Aim: 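Genome-wide screen for genes that prevent DNA re-replication in cancer cells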 (primary screen)
Cells: human HCT116 colorectal cancer cells
Reagent: single siRNA against human genes
Duration: 3 days
Read-out: 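Nuclei stained with Hoechst and imaged; cell-cycle phase assigned by DNA content; G2 share scaled per plate, non-targeting siRNA 0%, GMNN siRNA 100%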
Scale: G2 robust z-score and G2 cells, % of GMNN control: higher = more G2 cells, more excess DNA replication
Hit rule: 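An siRNA counts as active if its G2 robust z-score lies at least 5 MADs above the screen median; here such calls match roughly 38% of GMNN control or more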
The whole screen tested about 59,000 reagents; this is a part drawn at random. Over the whole deposit, about 1,550 (2.6%) got an active call. 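G2 share is only a proxy for re-replication; each gene was hit by three separate siRNAs, and active genes were retested.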 Not all columns of the deposit are shown. Reagent sequences are not shown. Not stated in the record: the amount of reagent.

EIF4EBP2 [SID160759372] gave G2 robust z-score 2.77; G2 cells, % of GMNN control 22.5; inactive.
EIF4EBP2 [SID160759383] showed G2 robust z-score 0.528; G2 cells, % of GMNN control 6.68; inactive.
Against EIF4EBP2 [SID160759393] the deposit lists G2 robust z-score -0.514; G2 cells, % of GMNN control -0.648; inactive.
With knock-down of HERC2P3 [SID160727973] the results were G2 robust z-score -0.0802; G2 cells, % of GMNN control 2.4; inactive.
After knock-down of HERC2P3 [SID160727974], the screen gave G2 robust z-score 0.396; G2 cells, % of GMNN control 5.75; inactive.
With knock-down of HERC2P3 [SID160727975], the record shows G2 robust z-score -0.365; G2 cells, % of GMNN control 0.402; inactive.
CEP57L1 [SID160733008] scored G2 robust z-score 0.0911; G2 cells, % of GMNN control 3.61; inactive.
CEP57L1 [SID160763711] gave G2 robust z-score -0.569; G2 cells, % of GMNN control -1.04; inactive.
Silencing of CEP57L1 [SID160763712] came out at: G2 robust z-score 0.201; G2 cells, % of GMNN control 4.38; inactive.
FBXO41 [SID160759012] scored G2 robust z-score -0.459; G2 cells, % of GMNN control -0.26; inactive.
FBXO41 [SID160759014] scored G2 robust z-score 0.228; G2 cells, % of GMNN control 4.57; inactive.
For FBXO41 [SID160759015], the entry reads G2 robust z-score -0.945; G2 cells, % of GMNN control -3.68; inactive.
PPWD1 [SID160736194] scored G2 robust z-score 1.8; G2 cells, % of GMNN control 15.6; inactive.
Depletion of PPWD1 [SID160736195] resulted in: G2 robust z-score 1.91; G2 cells, % of GMNN control 16.4; inactive.
Knock-down of PPWD1 [SID160736196] gave: G2 robust z-score 0.609; G2 cells, % of GMNN control 7.26; inactive.

Part of the list above, showing only “G2 cells, % of GMNN control”:
FBXO41 [SID160759014] = 4.57
FBXO41 [SID160759015] = -3.68

More entries follow.
Against ENTPD6 [SID160739248], the entry reads G2 robust z-score -0.203; G2 cells, % of GMNN control 1.54; inactive.
After knock-down of ENTPD6 [SID160739258] the results were G2 robust z-score -0.89; G2 cells, % of GMNN control -3.3; inactive.
For ENTPD6 [SID160739269] the deposit lists G2 robust z-score -0.285; G2 cells, % of GMNN control 0.96; inactive.
With knock-down of KIAA0232 [SID160723058] the results were G2 robust z-score 1.05; G2 cells, % of GMNN control 10.3; inactive.
Knock-down of KIAA0232 [SID160723059] resulted in: G2 robust z-score 0.444; G2 cells, % of GMNN control 6.09; inactive.
Knock-down of KIAA0232 [SID160723060] came out at: G2 robust z-score -0.822; G2 cells, % of GMNN control -2.82; inactive.
For ARHGDIA [SID160731202], the entry reads G2 robust z-score -0.932; G2 cells, % of GMNN control -3.59; inactive.
ARHGDIA [SID160775388] scored G2 robust z-score 5.37; G2 cells, % of GMNN control 40.7; active.
Against ARHGDIA [SID160775411], the entry reads G2 robust z-score -0.392; G2 cells, % of GMNN control 0.21; inactive.
